CoaBC: 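Enzyme assay of CoaBC with a phosphate dye (Biomol Green) read at 650 nm. Target: Coenzyme A biosynthesis protein CoaBC, Mycobacterium tuberculosis (UniProt P9WNZ1). Tested at 30 µM. Higher reads as stronger inhibition, judged from the few compounds that gave an IC50. Most strong results did not repeat in a second test. Size under these conditions: about 67,000 compounds, about 40 of them at 50% or above in at least one test.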
TcHisRS: 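Histidine-tRNA ligase, Trypanosoma cruzi CL Brener (UniProt Q4DA54). Enzyme assay of histidyl-tRNA synthetase; the read-out is not stated. Tested at 30 µM. Higher reads as stronger inhibition (inferred: compounds with an IC50 in retests scored well above the rest). About 69,000 compounds were tested under these conditions; 0.045% (about 31) showed 50% or more at least once.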

The chains behind the UniProt entries cited, without tags or fusion partners. Residues count along the entry.
UniProt P9WNZ1, whole entry: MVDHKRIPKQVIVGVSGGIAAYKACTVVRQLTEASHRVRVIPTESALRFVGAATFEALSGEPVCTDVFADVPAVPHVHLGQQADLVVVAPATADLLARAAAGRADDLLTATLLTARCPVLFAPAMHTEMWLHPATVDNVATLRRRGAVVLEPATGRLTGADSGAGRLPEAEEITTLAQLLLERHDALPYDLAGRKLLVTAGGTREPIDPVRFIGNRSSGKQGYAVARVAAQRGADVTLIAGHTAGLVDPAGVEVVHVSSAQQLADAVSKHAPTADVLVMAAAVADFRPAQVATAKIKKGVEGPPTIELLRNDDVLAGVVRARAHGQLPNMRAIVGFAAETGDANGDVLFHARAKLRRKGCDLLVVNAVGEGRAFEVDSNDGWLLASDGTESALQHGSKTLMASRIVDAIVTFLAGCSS
UniProt Q4DA54, 1-478: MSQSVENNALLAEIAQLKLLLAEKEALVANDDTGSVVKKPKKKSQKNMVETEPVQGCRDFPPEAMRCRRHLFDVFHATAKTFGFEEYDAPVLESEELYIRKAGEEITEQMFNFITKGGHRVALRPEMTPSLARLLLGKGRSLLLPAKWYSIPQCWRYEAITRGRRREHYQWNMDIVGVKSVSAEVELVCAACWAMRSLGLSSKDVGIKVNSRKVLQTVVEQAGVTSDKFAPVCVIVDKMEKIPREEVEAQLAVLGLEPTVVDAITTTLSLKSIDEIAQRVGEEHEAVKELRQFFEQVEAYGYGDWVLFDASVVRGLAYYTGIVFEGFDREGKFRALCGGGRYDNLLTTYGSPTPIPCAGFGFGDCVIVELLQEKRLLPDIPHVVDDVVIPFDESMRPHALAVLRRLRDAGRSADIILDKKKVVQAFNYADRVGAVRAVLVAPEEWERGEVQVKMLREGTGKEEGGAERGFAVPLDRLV

Each number is a percent effect as filed.
The record does not define 0% and 100%; most values in the screen are far below 50% and negative numbers occur (in some assays of this library far below -100).
The compounds are a random part of those screened.

Cc1cc(C(=O)N2CCN(c3nc4c(F)cccc4s3)CC2)no1 read CoaBC: 0.4843%; TcHisRS: 13%.
COc1cccc(-c2ncc(CN3C[C@@H]4CC[C@H](C3)N(C)C4=O)s2)c1 read TcHisRS: 6.579%.
COC(=O)c1sccc1S(=O)(=O)N1CCC(Oc2cccnn2)CC1 read CoaBC: -10.45%; TcHisRS: 6.612%.
CCN(CC)C(=O)[C@@H]1C[C@@H](n2cc(-c3cccc(OC)c3)nn2)CN1 read CoaBC: 3.226%; TcHisRS: 5.028%.
Cc1cnc(N2Cc3nccn3CC(Cn3nc(C)nc3C)C2)nc1 (stereo not given) read CoaBC: 5.14%; TcHisRS: 6.522%.
Cc1nn(C)c2ncc(S(=O)(=O)N3CCCC(C(N)=O)C3)cc12 (stereo not given) read CoaBC: -0.8264%; TcHisRS: 7.065%.
CC(C)(C)c1nc(CN2CCCC2CCc2ccccc2)no1 (stereo not given) read CoaBC: -0.7229%; TcHisRS: 2.29%.
CN(Cc1ccccc1F)C(=O)CS(=O)(=O)Cc1ccc(Cl)c(Cl)c1 read CoaBC: -0.7692%; TcHisRS: -6.415%.
Cc1nc2cc(=O)[nH]n2c(C)c1CNC(=O)C(C)(C)c1ccccc1 read TcHisRS: 9.554%.
OCC1CCCN(Cc2c(C3CCCC3)[nH]c3ncccc23)C1 (stereo not given) read CoaBC: 0.9685%; TcHisRS: 7.778%.
c1cnc(NC[C@H]2OC[C@@H]3CCN(Cc4nccs4)C[C@@H]32)nc1 read CoaBC: 3.083%; TcHisRS: 8.571%.
CC(C)S(=O)(=O)C(C)C(=O)NCc1ccccc1OCc1ccccc1 (stereo not given) read CoaBC: 0.6734%; TcHisRS: 7.071%.
O=S(=O)(NCCc1c[nH]c2cc(F)ccc12)C1CCOC1 (stereo not given) read CoaBC: 11.29%; TcHisRS: 0.8403%.
COc1ccc(CN2CC3(CCNCC3)CCC2=O)c(F)c1F read CoaBC: -3.672%; TcHisRS: 8.163%.
O=C(NCCOc1ccc(F)cc1)C1CCCN(C(=O)C2CC2)C1 (stereo not given) read CoaBC: 7.656%; TcHisRS: 4.902%.
c1nc(N2CCCCC2Cn2cncn2)c2sccc2n1 (stereo not given) read CoaBC: -0.8739%; TcHisRS: 6.122%.
CCn1nnnc1-c1cccc(NC(=O)CCn2cc(C)cn2)c1 read CoaBC: -0.7968%; TcHisRS: 6.316%.
COCCN1CCC2(CCN(c3ncccn3)CC2)C1=O read CoaBC: -7.059%; TcHisRS: -0.4808%.
Cc1cc(C(=O)N2CCCC2c2nnc3n2CCCCC3)on1 (stereo not given) read CoaBC: -1.033%; TcHisRS: -0.8772%.
CCc1ccc(C(=O)N2CC[C@](C)(O)C(C)(C)C2)[nH]1 read CoaBC: 0.1242%; TcHisRS: 0.9662%.
CC(=O)N1CCC2(CC1)C(=O)N(C)c1c(F)cccc12 read CoaBC: 1.903%; TcHisRS: 2.151%.
COC(=O)c1ccc(CNC(=O)CN2C[C@@H](NC(C)=O)[C@H](C(C)C)C2)o1 read CoaBC: -2.418%; TcHisRS: 6.186%.
CS(=O)(=O)NC1CCN(C(=O)NCc2ccccn2)CC1 read CoaBC: 2.864%; TcHisRS: 6.122%.
CCN(CC)S(=O)(=O)c1ccc(NC(=O)C(C)(C)C)cc1 read CoaBC: -0.2433%; TcHisRS: -0.6061%.
COc1ccc(NC(=O)c2ccoc2C)c(N2CCN(C(C)=O)CC2)n1 read CoaBC: -4.762%; TcHisRS: 0%.
Fc1cccc(CN2CCO[C@H]3[C@@H](OCc4ccccn4)CC[C@@H]32)c1 read CoaBC: 5.792%; TcHisRS: 2.732%.
COC(CNC(=O)C1CC1)c1ccc(C)s1 (stereo not given) read CoaBC: -3.321%; TcHisRS: -1.212%.
CC(C)NC(=O)[C@@H]1CN(Cc2nccs2)C[C@H]2OCC[C@H]21 read CoaBC: -3.832%; TcHisRS: -10.2%.
CN1CCN(Cc2cn3c(n2)CN(CC2CC2)CC3)CC1 read CoaBC: -5.607%; TcHisRS: 4.348%.
Cc1nc(CNc2ccccc2CCC(F)(F)F)cs1 read CoaBC: -13.28%; TcHisRS: 3.627%.

For reference, 4 entries once more:

c1nc(N2CCCCC2Cn2cncn2)c2sccc2n1 (stereo not given) read CoaBC: -0.8739%; TcHisRS: 6.122%.
CCN(CC)S(=O)(=O)c1ccc(NC(=O)C(C)(C)C)cc1 read CoaBC: -0.2433%; TcHisRS: -0.6061%.
Cc1cnc(N2Cc3nccn3CC(Cn3nc(C)nc3C)C2)nc1 (stereo not given) read CoaBC: 5.14%; TcHisRS: 6.522%.
O=C(NCCOc1ccc(F)cc1)C1CCCN(C(=O)C2CC2)C1 (stereo not given) read CoaBC: 7.656%; TcHisRS: 4.902%.

Data taken from ChEMBL document CHEMBL3988442, “University of Dundee, Small-Polar-MMV Screening Library” (2021).